Paper PMC4490372
For part of these data: A weaker result is weaker than the reference pair of the same experiment. For part of these data: Protein sequences can lack the tags named with them. Construct, isoform or probe ends are uncertain for at least one entry.

How the values were obtained:
[1] = target: T1, τ138 eWH domain (Saccharomyces cerevisiae) (UniProt P34111); assay: EMSA; conditions: very weak unspecific binding, EMSA: 20 mM Tris pH 7.5, 150 mM NaCl, 1 mM MgCl2, 2 mM DTT, 25 °C, 30 min, 4.5% acrylamide gel in Tris-glycine, recombinant protein, residues 546-641, protein details: 6xHis-GST removed by TEV, label: 32P end label
T1 sequence (looked up): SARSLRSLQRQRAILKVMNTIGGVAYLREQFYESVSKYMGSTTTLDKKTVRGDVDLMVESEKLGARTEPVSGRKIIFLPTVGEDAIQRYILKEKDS

[2] = tested on: TFIIIC (six-subunit complex: τ138, τ131, τ95, τ91, τ60, τ55) (Saccharomyces cerevisiae SC2342); assay: EMSA; conditions: EMSA: 20 mM Tris pH 7.5, 150 mM NaCl, 1 mM MgCl2, 2 mM DTT, 25 °C, 30 min; 4.5% acrylamide gel in Tris-glycine; native protein; protein details: C-terminal TAP on τ60 (Tfc8), TEV-cleaved; label: 32P end label

Does “CGATATAGTGTAACGGCTATCACATCACGCTTTCACCGTGGAGACCGGGGTTCGACTCCCCGTATC (double strand) [66 bp tDNAGlu oligonucleotide (ds)]” bind [1]?
Result: binds more weakly

Does “CGATATAGTGTAACGGCTATCACATCACGCTTTCACCGTGGAGACCGGGGTTCGACTCCCCGTATC (double strand) [66 bp tDNAGlu oligonucleotide (ds)]” bind [2]?
Result: binds

Does “CGATATAGTGTAACGGCTATCACATCACGCTTTCACCGTGGAGACCGGGGTTCGACTCCCCGTATC [66 nt tDNAGlu oligonucleotide (ss)]” bind ([1]; single-stranded …)?
Result: binds more weakly
